Whole data set: some 33,000 sequences, median “E-score (-0.5 to 0.5)” near -0.016, cut for the highest 2% near 0.3. The list shows a part of the results.
What follows are sequences tested against T1, Yer184c (UniProt P39961) (assay: PBM E-score (8-mer binding enrichment) (E-score (-0.5 to 0.5)); higher = stronger / more preferred TF binding). Conditions: protein concentration: 100 nM; construct: GST-full length.
T1 sequence: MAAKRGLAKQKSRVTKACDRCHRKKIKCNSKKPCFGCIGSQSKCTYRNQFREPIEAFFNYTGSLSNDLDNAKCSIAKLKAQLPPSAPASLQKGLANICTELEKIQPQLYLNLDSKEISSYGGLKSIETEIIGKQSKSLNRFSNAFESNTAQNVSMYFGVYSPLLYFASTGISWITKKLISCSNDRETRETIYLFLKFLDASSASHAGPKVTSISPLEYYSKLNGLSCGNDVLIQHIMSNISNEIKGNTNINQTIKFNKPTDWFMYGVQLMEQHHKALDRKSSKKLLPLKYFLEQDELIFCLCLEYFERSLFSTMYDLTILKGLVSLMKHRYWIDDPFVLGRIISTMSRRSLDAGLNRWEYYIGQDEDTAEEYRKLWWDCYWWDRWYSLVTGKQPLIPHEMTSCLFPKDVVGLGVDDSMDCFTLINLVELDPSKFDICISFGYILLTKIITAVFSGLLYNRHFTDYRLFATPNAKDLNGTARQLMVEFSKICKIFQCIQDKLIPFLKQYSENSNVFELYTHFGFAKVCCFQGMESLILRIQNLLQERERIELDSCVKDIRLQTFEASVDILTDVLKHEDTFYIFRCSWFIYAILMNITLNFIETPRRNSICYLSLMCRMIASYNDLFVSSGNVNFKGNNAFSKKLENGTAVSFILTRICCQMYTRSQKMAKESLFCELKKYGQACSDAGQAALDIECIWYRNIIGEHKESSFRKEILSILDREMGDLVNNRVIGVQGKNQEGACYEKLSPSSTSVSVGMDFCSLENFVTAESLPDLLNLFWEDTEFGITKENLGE
Summary of the method: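 Universal all-10-mer Agilent arrays, double-stranded by primer extension on fresh or once-stripped slides, were probed with about 100-200 nM GST-tagged yeast transcription factors made by PURExpress. Fluorescent anti-GST detected bound protein, and masliner normalised the scans. E-scores from the Universal PBM Analysis Suite were given to each ungapped eight-base word pooled with its reverse complement.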

Compared with AGCATGTC, ATATTAGG is higher in “PBM E-score” value: -0.125 for the first, 0.0437 for the second.

Compared with CAACATCC, CGACAAGC is lower in “PBM E-score” value: 0.0105 for the first, -0.166 for the second.

First: CGCTGTGC
Second: CCGGGAGC
The “PBM E-score” value of the first is lower: -0.0524 for the first, 0.162 for the second.

Compared with CCAAAGTA, AGGCTGAG is lower in “PBM E-score” value: -0.0504 for the first, -0.173 for the second.

First: CAAACCAC
Second: ACATCAAT
The “PBM E-score” value of the first is lower: -0.145 for the first, 0.0812 for the second.

First: GAAGTTAA
Second: AAATACAT
The “PBM E-score” value of the first is higher: 0.0852 for the first, -0.0718 for the second.

First: ACAACTGC
Second: AGGGACCT
The “PBM E-score” value of the first is higher: 0.0629 for the first, -0.155 for the second.

First: ATGATCTG
Second: CCTGATCG
The “PBM E-score” value of the first is higher: 0.075 for the first, -0.0704 for the second.

First: TCCTGCCA
Second: GAGCTAAA
The “PBM E-score” value of the first is lower: -0.22 for the first, 0.0217 for the second.

Compared with AAATTGAT, ATTTGTGA is lower in “PBM E-score” value: 0.159 for the first, 0.0908 for the second.

Compared with ATGGAAAA, ACCTCCAA is lower in “PBM E-score” value: 0.158 for the first, -0.232 for the second.

First: ACGGGTCA
Second: AATAACAC
The “PBM E-score” value of the first is lower: -0.191 for the first, -0.111 for the second.

First: GACCAAGC
Second: AAACCCAG
The “PBM E-score” value of the first is lower: -0.0879 for the first, -0.0251 for the second.

Compared with ACATCAAC, CCACCAAG is lower in “PBM E-score” value: 0.224 for the first, -0.287 for the second.

Going from GGACAAAC to ATCAATGC, the “PBM E-score” value falls from 0.0117 to 0.0054.

Going from AACATCCA to ATAGCCAG, the “PBM E-score” value falls from -0.123 to -0.172.

Going from GAAAAGGA to CGTTAATA, the “PBM E-score” value falls from 0.136 to 0.13.

First: ATTAAGTA
Second: GGGACAAC
The “PBM E-score” value of the first is higher: 0.144 for the first, -0.0988 for the second.

First: CGGTTAGC
Second: CAATCAGG
The “PBM E-score” value of the first is higher: 0.0658 for the first, 0.0527 for the second.

First: TATGACAA
Second: GGGAAAAC
The “PBM E-score” value of the first is higher: 0.219 for the first, -0.00619 for the second.

Going from CAAGCTTA to GACTGTCC, the “PBM E-score” value falls from -0.0128 to -0.107.

First: GCCGGCCC
Second: CGTAAGTC
The “PBM E-score” value of the first is higher: 0.343 for the first, -0.00193 for the second.

First: ACCATTCG
Second: ATTGCAAA
The “PBM E-score” value of the first is lower: -0.0973 for the first, 0.197 for the second.

Going from AATCTGAG to CTTTAAAA, the “PBM E-score” value rises from -0.0818 to 0.182.

First: GTGCCCAA
Second: GAGTATAC
The “PBM E-score” value of the first is lower: -0.0746 for the first, 0.0205 for the second.

Going from CAATACGA to ACGGTCTG, the “PBM E-score” value falls from 0.0856 to 0.0726.

Compared with CAGCTACA, GCCTTGCC is higher in “PBM E-score” value: -0.17 for the first, -0.0712 for the second.

First: GACTAAGC
Second: GCACCGGC
The “PBM E-score” value of the first is lower: 0.0141 for the first, 0.234 for the second.

Compared with TACAAGTA, CGTGCCGA is higher in “PBM E-score” value: -0.0668 for the first, 0.289 for the second.

Going from ATCCTACG to AGGGCGTA, the “PBM E-score” value falls from -0.149 to -0.155.

Compared with GGGTACGA, ATCTACAT is higher in “PBM E-score” value: -0.0885 for the first, 0.124 for the second.

First: CCCACTTC
Second: ATATCCAG
The “PBM E-score” value of the first is lower: -0.0683 for the first, -0.0198 for the second.

Going from ATAATCCA to ATAGGGAG, the “PBM E-score” value falls from 0.137 to -0.359.

Compared with CCGGTCGA, AAACATAA is lower in “PBM E-score” value: 0.141 for the first, -0.0233 for the second.

Compared with TAAACATA, ATTTGTTG is lower in “PBM E-score” value: 0.178 for the first, 0.0877 for the second.

First: ACTAGTCT
Second: AGGCAAAG
The “PBM E-score” value of the first is lower: -0.156 for the first, -0.0885 for the second.

Compared with AATGGAGA, CGGTAGGA is higher in “PBM E-score” value: -0.0475 for the first, -0.0428 for the second.

Compared with AGGGATAA, GACCCTGC is lower in “PBM E-score” value: 0.0505 for the first, -0.0758 for the second.

Compared with GCCGCCGA, ATTCACGA is lower in “PBM E-score” value: 0.264 for the first, 0.0428 for the second.

Compared with CTGTTATA, ACGACGAG is lower in “PBM E-score” value: 0.109 for the first, -0.218 for the second.

Going from AAGCTATT to GATTGTAA, the “PBM E-score” value rises from -0.0139 to 0.158.

Compared with AAACGGAG, CAACTTAG is lower in “PBM E-score” value: 0.152 for the first, 0.14 for the second.

Going from GATGTTCA to GACGGTCC, the “PBM E-score” value falls from -0.0235 to -0.0736.

Going from ACAAGTTG to GCCAACGA, the “PBM E-score” value rises from -0.0672 to -0.0411.

First: AAATTTAG
Second: AACAAACA
The “PBM E-score” value of the first is lower: 0.246 for the first, 0.254 for the second.

Compared with CCGGAGCG, CAACGGGC is lower in “PBM E-score” value: 0.228 for the first, 0.0443 for the second.

Going from CCTGCGTC to TCTGTTAA, the “PBM E-score” value rises from -0.204 to 0.0915.

Going from AAACCCCT to ACATGAGA, the “PBM E-score” value rises from -0.294 to 0.0734.

First: ATTAGAAC
Second: AGCACGCA
The “PBM E-score” value of the first is higher: 0.192 for the first, -0.0396 for the second.

Going from GGTAAGCA to ACGGGTTG, the “PBM E-score” value rises from -0.146 to -0.116.

Going from ATGGGCGC to CTACGCCA, the “PBM E-score” value falls from -0.223 to -0.234.

First: CCGAAGTC
Second: GCACACCC
The “PBM E-score” value of the first is higher: 0.159 for the first, -0.238 for the second.

Compared with ACTACGCT, TGCATCCA is higher in “PBM E-score” value: -0.176 for the first, -0.108 for the second.

First: TCAGGGCA
Second: CAACCTCA
The “PBM E-score” value of the first is higher: -0.141 for the first, -0.202 for the second.

Going from CGGAAGAA to CTACTGCC, the “PBM E-score” value falls from 0.293 to -0.179.

Compared with GCCCTTGA, TAGATGAA is higher in “PBM E-score” value: -0.225 for the first, 0.0708 for the second.

First: CCCGCAAC
Second: CGGTGGCC
The “PBM E-score” value of the first is higher: 0.168 for the first, 0.0286 for the second.

Compared with ACGCTAGT, AAAAACTG is lower in “PBM E-score” value: 0.0345 for the first, -0.124 for the second.

Compared with GAGGCTAA, CGGCAGGA is higher in “PBM E-score” value: -0.0329 for the first, 0.122 for the second.

First: AAGCCTCT
Second: AAGGTGAG
The “PBM E-score” value of the first is lower: -0.281 for the first, -0.133 for the second.

First: AAGCTGCA
Second: CAAATTGA
The “PBM E-score” value of the first is higher: -0.0649 for the first, -0.128 for the second.

Going from TACGAACA to CAGAGCTC, the “PBM E-score” value falls from 0.178 to -0.139.

First: GCGCGACA
Second: GCACCAAC
The “PBM E-score” value of the first is higher: 0.0188 for the first, -0.016 for the second.

Going from GAGTTACC to ACGGTTCA, the “PBM E-score” value falls from -0.0353 to -0.19.

Compared with ACGGGCTC, AGAGATCT is higher in “PBM E-score” value: -0.234 for the first, -0.168 for the second.

Going from AGGCACAA to GAACCGTC, the “PBM E-score” value falls from -0.0238 to -0.0897.

Compared with GGGAATGA, GAGGTGCC is lower in “PBM E-score” value: 0.126 for the first, 0.0277 for the second.

First: GCCACTTA
Second: TACGACTA
The “PBM E-score” value of the first is lower: -0.206 for the first, -0.0569 for the second.

Compared with ATCTATTG, AGACGCGG is higher in “PBM E-score” value: 0.11 for the first, 0.121 for the second.

Going from CCCCACTA to CAGCATAC, the “PBM E-score” value rises from -0.344 to -0.217.

Going from AACATATG to AACTTAAT, the “PBM E-score” value rises from -0.00254 to 0.205.

Compared with ACATAGTA, AGGGTAAA is lower in “PBM E-score” value: 0.09 for the first, -0.00637 for the second.

Going from CCAATCAA to CTATGCGA, the “PBM E-score” value falls from -0.00381 to -0.211.

Compared with CCTTGAGA, ACCAGATC is lower in “PBM E-score” value: -0.0348 for the first, -0.107 for the second.

Going from CATGACCA to ATAATCAT, the “PBM E-score” value rises from -0.139 to 0.194.

Compared with CCCGTGCG, GGCTAGCA is lower in “PBM E-score” value: 0.131 for the first, -0.116 for the second.

Compared with ACAACGCG, GAGTGTAA is lower in “PBM E-score” value: 0.0628 for the first, -0.229 for the second.

First: CGATCCTA
Second: AGGGAACC
The “PBM E-score” value of the first is lower: -0.167 for the first, -0.101 for the second.

First: GAGCTCGC
Second: AAGGAAAA
The “PBM E-score” value of the first is lower: 0.0706 for the first, 0.144 for the second.

Compared with CCAGTATC, AGGGCAAT is higher in “PBM E-score” value: -0.197 for the first, -0.111 for the second.

First: AAGGCGGC
Second: CATAATCC
The “PBM E-score” value of the first is higher: -0.0217 for the first, -0.0979 for the second.

Compared with AGAACAGG, TTGTTAAA is higher in “PBM E-score” value: -0.0745 for the first, 0.227 for the second.

Compared with GCGCAGTA, GATCGTCC is lower in “PBM E-score” value: -0.0507 for the first, -0.0573 for the second.

Going from ACTACGTC to GAATGGGA, the “PBM E-score” value falls from -0.225 to -0.228.

Compared with ATATCTTC, CTTGCCCC is lower in “PBM E-score” value: 0.122 for the first, -0.119 for the second.

Going from CACGGTTC to CCGAATTA, the “PBM E-score” value rises from -0.0841 to 0.231.

Source: the supplement of paper PMC3334620
